In PubChem BioAssay AID2685 (National Center for Advancing Translational Sciences (NCATS), 2010):
Some of the results follow. Shown are side measurements of this screen, not its main read-out; they come without a call. Compounds called inactive in the main read-out are mostly missing here. The note in brackets gives the kind of curve behind each potency; many fits are weak.

Assay: qHTS Assay for Lipid Storage Modulators in Drosophila S3 Cells;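 for cell number change: cells counted by Cell Tracker Red CMTPX staining in the red channel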
Details: BODIPY lipid droplet fluorescence, 18-24 h; for cell number change: measured here: cell count max response, cells fed with added oleic acid
Method in brief: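 Laser-scanning cytometry quantifies lipid droplet accumulation (500–530 nm total intensity; droplet/cell object ratio) in oleic acid-fed (400 uM added) Drosophila S3 cells treated with a concentration series. 20 uM Triacsin C defined 100% inhibition.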

[1] = measured here: lipid fluorescence (Fed channel) AC50, cells fed with added oleic acid
[2] = measured here: cell number channel AC50, cells fed with added oleic acid

In the case of CC(C)CC(=O)Nc1ccc(Nc2ccccc2)cc1, the cell number change is reported as -16.4% and the AC50 [1] is reported as 16.4 µM [falling, single point].
With CCS(=O)(=O)C(C)(CCl)C(=O)Nc1ccc(C(=O)OC)cc1 (centres undefined) the cell number change was 16% and the AC50 [1] was 9.2 µM [rising, partial curve].
For COc1ccc(S(=O)(=O)N2CCOCC2)cc1NC(=O)COc1ccc(C(C)=O)cc1OC, the cell number change was 39.4% and the AC50 [2] was 1.64 µM [rising, full curve].
With Cc1ccccc1NC(=O)c1cc2ccccn2n1 the cell number change was 65.2%, the AC50 [2] was 0.326 µM [rising, full curve] and the AC50 [1] was 0.291 µM [rising, full curve].
In the case of COc1cc(/C=C(\C#N)C(=O)NC(C)C)cc(Cl)c1O, the AC50 [1] is reported as 0.146 µM [rising, single point].
With N/C(=N\OC(=O)CCc1ccccc1)c1cccnc1 the cell number change was 38.4% and the AC50 [2] was 14.6 µM [rising, partial curve, poor fit].
CC(=O)NC(NC(=S)Nc1cccc(Br)c1)C(Cl)(Cl)Cl (centres undefined) gave a cell number change of -16.3%.
In the case of CCOc1ccccc1C(=O)NCC(=O)NCCCc1ccccc1, the cell number change is reported as -16.7% and the AC50 [1] is reported as 0.116 µM [falling, full curve, poor fit].
For Cc1cc(C)cc(Nc2ncc3c(n2)CCCC3=O)c1, the cell number change was 0.074% and the AC50 [1] was 0.366 µM [rising, full curve, poor fit].
For Cc1cccc(NC(=O)C2CCCN2S(=O)(=O)c2ccc(Cl)cc2)n1 (centres undefined), the cell number change was -44.6%, the AC50 [2] was 13 µM [falling, partial curve, poor fit] and the AC50 [1] was 20.6 µM [falling, partial curve].
For Cc1cc(-n2c(SCCC#N)nnc2-c2cccnc2)ccc1Cl, the cell number change was 29.8%.
For O=S(=O)(N/N=C\c1ccc(-c2ccccc2Cl)o1)c1ccccc1, the cell number change was -52.7%, the AC50 [2] was 16.4 µM [falling, partial curve, poor fit] and the AC50 [1] was 14.6 µM [falling, partial curve, poor fit].
In the case of Cc1ccc(CN(Cc2ccco2)C(=S)NCC(=O)NC2CC2)cc1, the cell number change is reported as 19.8%.
In the case of CC1CCN(CCCCOc2cccc(C(C)C)c2)CC1, the cell number change is reported as 9.72%.
With Cc1cc(NC(=O)CSc2n[nH]c(-c3ccc(Cl)cc3Cl)n2)no1 the cell number change was -14.8% and the AC50 [1] was 29.1 µM [falling, single point].
O=C(Nc1ccc2[nH]ncc2c1)c1ccc(F)cc1 showed a cell number change of 18.9%.
With COc1ccc(CC(=O)NC2CCCCCC2)c(OC)c1 the cell number change was -30.6% and the AC50 [1] was 0.58 µM [falling, single point].
In the case of O=C(CCc1ccc(S(=O)(=O)N2CCOCC2)cc1)NCCc1ccccn1, the cell number change is reported as -5.3% and the AC50 [1] is reported as 0.92 µM [rising, single point].
In the case of Cn1cc(CN2CCN(CC(C)(C)C)C(CCO)C2)c2ccccc21 (centres undefined), the cell number change is reported as 3.57% and the AC50 [1] is reported as 0.58 µM [rising, partial curve, poor fit].
Compound O=c1[nH]c2ccc(S(=O)(=O)N3CCCC3)cc2[nH]1 has a cell number change of 4.76%.
With CC(=O)Nc1nc(C)c(CCCOc2ccc([N+](=O)[O-])cc2)c(=O)[nH]1 the cell number change was 4.76% and the AC50 [2] was 0.164 µM [rising, full curve, poor fit].
With Cc1cc(O)ccc1Nc1nc(-c2sc(N)nc2C)cs1 the AC50 [2] was 0.13 µM [falling, full curve, poor fit].
With O=C(NC1CCN(S(=O)(=O)c2ccc(F)cc2)CC1)c1cccnc1 the cell number change was -25.6% and the AC50 [1] was 1.16 µM [falling, full curve].
With O=C(COc1ccc(Br)cc1Cl)NC(=O)NCc1ccccc1 the AC50 [1] was 29.1 µM [rising, partial curve, poor fit].
For Cc1cccc(Nc2nnc(SCC(=O)NCc3cccs3)s2)c1C, the cell number change was -33.3% and the AC50 [2] was 0.164 µM [falling, full curve, poor fit].
For CC(C)CNC(=O)CC1Nc2ccccc2NC1=O (centres undefined), the AC50 [1] was 23.1 µM [falling, single point].
With COc1ccc(NS(=O)(=O)c2ccc(O)c(NC(=O)c3ccc(S(=O)(=O)N4CCCC4)cc3)c2)cc1 the cell number change was -18.3%, the AC50 [2] was 2.59 µM [falling, partial curve] and the AC50 [1] was 2.06 µM [falling, partial curve, poor fit].
For N#CCCN(Cc1ccccc1)C(=S)Nc1ccc(F)cc1, the cell number change was 1.85%, the AC50 [2] was 4.11 µM [falling, single point] and the AC50 [1] was 5.17 µM [falling, single point].
For Cc1nonc1NC(=O)CSc1nc(C2CCCCC2)nc2ccccc12, the cell number change was -34.6% and the AC50 [2] was 13 µM [falling, partial curve, poor fit].
With Cc1ccc(-c2nnc(N)s2)cc1 the cell number change was 24.7%, the AC50 [2] was 0.058 µM [rising, full curve, poor fit] and the AC50 [1] was 0.146 µM [rising, full curve, poor fit].
With Cc1nc(N)sc1N=Nc1ccccc1C(F)(F)F the cell number change was -43.1%, the AC50 [2] was 16.4 µM [falling, single point] and the AC50 [1] was 29.1 µM [falling, single point].
In the case of CC(=O)c1c[nH]c(C(=O)NCc2cccc(C(F)(F)F)c2)c1, the cell number change is reported as 13.4% and the AC50 [1] is reported as 6.51 µM [falling, single point].
With Cn1nc([N+](=O)[O-])nc1S(C)(=O)=O the cell number change was 17.2% and the AC50 [2] was 0.164 µM [falling, full curve].
For CCOc1cc(N2CCOCC2)c(OCC)cc1NC(=O)COC(=O)[C@@H]1CCCN1S(=O)(=O)c1ccccc1F, the cell number change was 70.1% and the AC50 [2] was 29.1 µM [rising, single point].
In the case of COc1cc(/C=N/NC(=O)c2ccncc2)ccc1OC(=O)c1cccc(F)c1, the cell number change is reported as 35.7%, the AC50 [2] is reported as 29.1 µM [rising, single point] and the AC50 [1] is reported as 3.26 µM [rising, partial curve].
In the case of [O-][N+]1=C(c2cccs2)CN(O)C1, the cell number change is reported as -1.68% and the AC50 [1] is reported as 0.517 µM [falling, full curve].
For CC1CCc2c(sc(NC(=O)/C=C/c3cccs3)c2C(=O)O)C1 (centres undefined), the cell number change was -10.5% and the AC50 [1] was 29.1 µM [falling, single point].
For O=C(c1ccc(S(=O)(=O)NCc2ccco2)cc1)N1CCN(c2ccc(F)cc2)CC1, the cell number change was -17.3% and the AC50 [1] was 0.103 µM [falling, full curve, poor fit].
With O=C(NC1CCCCC1)c1cccc(S(=O)(=O)N2CCCCC2)c1 the AC50 [2] was 0.164 µM [falling, full curve, poor fit].
For CCN(CC)C(=O)c1nn(-c2ccccc2)c2c1C1CCC2(C)C1(C)C (centres undefined), the cell number change was 27.4%, the AC50 [2] was 4.11 µM [rising, single point] and the AC50 [1] was 4.11 µM [rising, partial curve, poor fit].
Work on COCCn1cnc2c1c(=O)n(Cc1ccc(Br)cc1)c(=O)n2Cc1ccccc1 yielded a cell number change of -17.5%.
